Laboratory results as given in PubChem BioAssay AID1487 (National Center for Advancing Translational Sciences (NCATS), 2009).
About 25 (0.01%) of roughly 200,000 compounds were called active. Inconclusive means that the source gave no clear call. Such entries were picked first, then a sample of the others. The call rests on the fitted dose curve; in most records, active means well fitted inhibition curve with a large enough effect in the signal ratio, with a control signal flat (not every such curve was filed as active); inconclusive means small, poorly fitted or top-dose-only effect, or effect the other way, or a change in a side signal; inactive means flat fitted curve, though single readings scatter; the % refers to the signal ratio. Where the call is inconclusive, the potency comes from a doubtful curve fit.

assay: qHTS Assay for Modulators of Lamin A Splicing; conditions: HeLa LMNA splicing GFP/RFP minigene ratio, 48 h; ratio change, negative = inhibition: at 46.1 µM (top of the series) unless noted
Procedure, shortened: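 Read-out is the ratio of GFP to DsRed2 object intensity, acquired by 488 nm laser-scanning cytometry on HeLa lamin A-EGFP minigene reporter cells. Compound incubation 48 hrs at 37 °C in Opti-MEM with 2% FBS; DMSO 0.5% final.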
On the % scale 0 is the no-effect control and ±100 the full control effect; potency means the concentration at half of the fitted maximal effect.

| SMILES | ratio change, negative = inhibition | Potency |
| --- | --- | --- |
| O=C(NCCc1ccc(Cl)cc1)c1ccc(CS(=O)(=O)Cc2ccccc2F)o1 | inconclusive: -4.56% [at 46 µM] |  |
| Cc1cccc2c1NC(=O)/C2=C\C(=O)c1cccs1 | inconclusive: -48% |  |
| CC(C)(O/N=C(\C(=O)N[C@@H]1C(=O)N2C(C(=O)[O-])=C(C[n+]3ccccc3)CS[C@@H]12)c1csc(N)n1)C(=O)O | inconclusive: -0.0217% |  |
| O=C(Nc1ccc(C(F)(F)F)cc1)c1cc(S(=O)(=O)NCC2COc3ccccc3O2)ccc1F (stereo not drawn) |  | inconclusive: 35.5 µM [inhibitor, single point] |
| O=C(C1CCCN(S(=O)(=O)c2cccs2)C1)N1CCc2ccccc2C1 (stereo not drawn) | inconclusive: -39.1% |  |
| CN1CCN(CCCN2c3ccccc3Sc3ccc(C(F)(F)F)cc32)CC1 | inconclusive: -23.9% |  |
| O=C(CN1CCN(c2ncc(C(F)(F)F)cc2Cl)CC1)NCCNc1ncc(C(F)(F)F)cc1Cl | inactive: 2.45% |  |
| O=C(O)c1sc2cc(C(F)(F)F)cnc2c1-c1ccccn1 |  | inconclusive: 2.51 µM [activator, partial curve, poor fit] |
| Cc1ccsc1/C=N/NC(=O)c1cc(-c2ccncc2)nc2ccccc12 | inconclusive: -28.2% |  |
| CC(=O)N(CN1C(=O)c2ccccc2C1=O)c1cccc(C)c1 | inconclusive: 5.3% |  |
| Cc1[nH]c2ccccc2c1/C=N/NC(=O)c1cc(-c2cccs2)[nH]n1 | inactive: -18.8% |  |
| CCOc1ccc(CCNC(=O)COC(=O)c2cc(OC)c(OC)c(OC)c2)cc1OCC |  | inconclusive: 5.62 µM [inhibitor, full curve, poor fit] |
| Cc1ccc(CC(=O)OCCNC(=O)c2cccnc2)cc1 | inactive: 0.96% |  |
| CNC[C@H](O)c1ccc(O)c(O)c1 | inconclusive: 11.4% [at 46 µM] |  |
| Cc1cc(S(=O)(=O)Nc2ccc3c(c2)n(C)c(=O)n3C)ccc1F | inconclusive: -17.2% [at 46 µM] |  |
| Cc1ccc(OCc2ccc(-c3nc(C#N)c(N4CCC(C)CC4)o3)o2)cc1 | inconclusive: 25.5% [at 46 µM] |  |
| COc1ccccc1N1CCN(C(=O)c2cc3c(s2)CCC3)CC1 | inactive: -1.12% |  |
| COc1ccc(-n2c(SCCC#N)nnc2-c2cc(Cl)ccc2OC)cc1Cl | inconclusive: 8.65% |  |
| CCCNC(=O)CCC(=O)N1Cc2ccccc2Oc2ncccc21 | inactive: 8.53% [at 46 µM] |  |
| COc1cccc(OC)c1C(=O)NNC(=O)c1ccc(F)cc1 | inconclusive: 4.46% [at 46 µM] |  |
| O=C(NNc1cccc(Cl)n1)c1ccccc1CC[N+](=O)[O-] | inactive: 4.78% [at 9.22 µM] |  |

By substructure, the compounds so far containing a cyano group.

| SMILES | ratio change, negative = inhibition | Potency |
| --- | --- | --- |
| Cc1ccc(OCc2ccc(-c3nc(C#N)c(N4CCC(C)CC4)o3)o2)cc1 | inconclusive: 25.5% [at 46 µM] |  |
| COc1ccc(-n2c(SCCC#N)nnc2-c2cc(Cl)ccc2OC)cc1Cl | inconclusive: 8.65% |  |

Later entries.

| SMILES | ratio change, negative = inhibition | Potency |
| --- | --- | --- |
| CCCc1ccc(OCC(O)CN2CCN(c3ccccc3)CC2)cc1 (stereo not drawn) | inconclusive: 10.4% |  |
| Cc1ccc(NC(=O)CSc2nc3[nH]ncc3c(=O)[nH]2)cc1 | inconclusive: 31% [at 46 µM] |  |
| C[N+]1(C2CCC3CCCC2C3O)CCCCC1 (stereo not drawn) | inconclusive: 13.9% [at 46 µM] |  |
| CCCC(=O)O[C@@H]1C[C@@H](C)N(C(=O)c2ccccc2)c2ccc(C)cc21 | inconclusive: -27.1% |  |
| Nc1c(C(=O)NCCC2=CCCCC2)sc2ccc(S(=O)(=O)N3CCCCC3)cc12 |  | inconclusive: 35.5 µM [fluorescent, single point] |
| CCOc1ccc(N(CC)C(=O)CSc2n[nH]c(-c3ccccc3)n2)cc1 | inconclusive: 6.08% [at 46 µM] |  |
| Cc1cc(C(=O)N/N=C/C=C/c2ccccc2[N+](=O)[O-])c(C)o1 | inconclusive: -21.5% [at 46 µM] |  |
| CCOC(=O)c1c(N)sc2c1C1CCN2CC1 | inactive: 3.17% |  |
| COc1ccc(/C=C2\CCc3ccccc3C2=O)cc1Cn1cccn1 | inactive: -12.9% |  |
| COc1ccc(CC(=O)OCc2nnc(-c3ccccc3)o2)cc1 | inactive: 8.75% [at 46 µM] |  |
| COc1ccc(CCNC(=O)C(=O)NCC2OCCN2S(=O)(=O)c2ccc(Br)cc2)cc1OC (stereo not drawn) |  | inconclusive: 3.98 µM [fluorescent, full curve] |
| Cc1cccc(N2CCN(C(=O)c3cc(S(=O)(=O)N(C)C)ccc3N3CCCC3)CC2)c1C | inconclusive: -12.4% [at 46 µM] |  |
| Cc1ccc(-n2nnnc2SCC#N)cc1 | inconclusive: -26.2% [at 46 µM] |  |
| CC1=C(C(=O)Nc2ccccc2)C(c2ccncc2)C(C#N)=C(SCC(=O)NC(C)C)N1 (stereo not drawn) | inactive: 18.1% |  |
| COc1ccccc1C(=O)NC(=S)Nc1ccc(N2CCCC2)cc1 | inactive: -4.27% |  |
| O=C(Cc1ccc(Cl)cc1)N/N=C/c1cccs1 | inconclusive: 0.867% [at 46 µM] |  |
| COc1ccccc1CCNC(=O)Nc1cccc([N+](=O)[O-])c1 | inconclusive: -35.3% [at 46 µM] |  |
| COc1cc(/C=C/C(=O)c2ccc(Cl)s2)cc(OC)c1O |  | inconclusive: 35.5 µM [cytotoxic, single point] |
| CC(C)c1ccc(/C=C(\c2nc3ccccc3[nH]2)S(=O)(=O)c2ccccc2)cc1 |  | inconclusive: 6.31 µM [falling, single point] |
| CCN(CC)CCN(C(=O)c1ccco1)c1nc2ccc(Cl)cc2s1 | inconclusive: -10% [at 46 µM] |  |
| CCCC/S(CC1CC1(Cl)Cl)=N\S(=O)(=O)c1ccc(C)cc1 (stereo not drawn) | inactive: -14.2% |  |

| SMILES | ratio change, negative = inhibition | Potency |
| --- | --- | --- |
| CCCc1cc(=O)[nH]c(SCC(=O)Nc2nc(-c3ccccc3)cs2)n1 | inconclusive: -20.1% [at 46 µM] |  |
| Cc1[nH]c2ccccc2c1N=Nc1ccccc1C(=O)O | inconclusive: 33.2% |  |
| Cn1c(SCC(=O)N2c3ccccc3CCc3ccccc32)nnc1-c1ccc(O)cc1 | inconclusive: -16.8% |  |
| c1cncc(-c2noc(CC3CCCCC3)n2)c1 | inconclusive: 7.35% |  |
| CCN(CC)CCNC(=O)c1cc(Sc2nnc(C)s2)nc2ccccc12 | inactive: -20.4% |  |
| COc1ccc(-c2cn(-c3ccccc3)c3[n+]2CCS3)cc1 |  | inconclusive: 35.5 µM [inhibitor, single point] |
| CCN(CC)CCCNC(=O)c1cc2nc3c(c(C(F)(F)F)n2n1)CCc1ccccc1-3 | inconclusive: 22% [at 9.22 µM] |  |
| O=C(O)c1ccc(CSc2nc3ccccc3o2)cc1 | inactive: 6.79% |  |
| C[Si](C)(C)O[Si](C)(C)C | inconclusive: -7.54% |  |
| COc1ccc(NS(=O)(=O)c2cccc(NC(=O)c3ccccn3)c2)cc1 | inconclusive: 21.2% [at 46 µM] |  |
| Cc1ccccc1OCc1ccc(-c2nc(C#N)c(NCCCN(C)C)o2)o1 | inconclusive: -21.3% [at 46 µM] |  |
| CCOC(=O)C1C(C)N=C2SCC(=O)N2C1c1cccc(Br)c1 (stereo not drawn) | inconclusive: 9.9% |  |
| COc1cc(C2NC(=S)NC(C)=C2C(=O)Nc2ccc(C)cc2)ccc1O (stereo not drawn) | inconclusive: 14.5% [at 46 µM] |  |
| Cc1ccc(S(=O)(=O)c2c(N)n(Cc3ccco3)c3nc4ccccc4nc23)cc1 | inconclusive: 39% |  |
| O=C(Nc1ccccc1)Nc1nnc(Cc2ccc([N+](=O)[O-])cc2)s1 | inconclusive: 12.2% |  |
| CCOc1cccc2cc(-c3nnc(Nc4ccc(F)c(Cl)c4)s3)c(=O)oc12 | inconclusive: 7.68% [at 46 µM] |  |
| CCOc1cc(/C=C/c2ccc3cccc([N+](=O)[O-])c3n2)cc(Cl)c1O |  | inconclusive: 2 µM [falling, full curve] |
| COc1ccccc1CNC(=O)/C=C/c1ccc(S(=O)(=O)N2CCOCC2)cc1 | inactive: -10.9% [at 46 µM] |  |
| CSc1ccccc1NC(=O)Cn1ccsc1=N | inconclusive: 5.46% [at 46 µM] |  |
| CN(C)CCOC(C)(c1ccccc1)c1ccccn1 (stereo not drawn) | inconclusive: -2.66% [at 46 µM] |  |
| C=CCNC(N)=S | inconclusive: -3.93% |  |

| SMILES | ratio change, negative = inhibition | Potency |
| --- | --- | --- |
| Cc1cc(C(F)(F)F)nn1Cc1n[nH]c(=S)n1Cc1ccccc1 | inactive: -10.4% |  |
| Cc1[nH]c2ccccc2c1/C=N/Nc1nncn1N | inconclusive: 4.11% [at 9.22 µM] |  |
| Cc1ccc(C(=O)c2oc3ccccc3c2NC(=O)c2cc(-c3ccccc3)on2)cc1F | inactive: 20.1% [at 46 µM] |  |
| CCCCC/C=N\NC(=O)Cc1ccc([N+](=O)[O-])cc1 | inactive: -0.47% |  |
| CCOC1CC(C)(C)NC(=S)N1 (stereo not drawn) | inconclusive: 8.17% |  |
| Cc1ccc(S(=O)(=O)NCC2CCC(C(=O)NCc3cccnc3)CC2)cc1 (stereo not drawn) | inconclusive: 1.52% [at 46 µM] |  |
| COc1ccc(CNC(=O)c2c(F)c(F)c(F)c(F)c2F)cc1 | inconclusive: 12.6% |  |
| C=CC(C1=CC(=O)C(OC)=CC1=O)c1ccc(OC)cc1 (stereo not drawn) | inactive: -16.8% |  |
| CCOc1ccccc1NC(=O)CSc1nccn1-c1ccc(Cl)cc1 | inconclusive: -26.6% [at 46 µM] |  |
| COc1cc2c(cc1OC)C(C)N(C(=O)Cn1ncc3c1-c1ccccc1OC3)CC2 (stereo not drawn) | inactive: -11% |  |
| CCC(=O)Nc1cccc(-c2csc(-c3ccccc3)n2)c1 | inconclusive: -26.4% |  |
| O=c1[nH]c(=O)n([C@@H]2C[C@H](O)[C@H](CO)O2)cc1I |  | inconclusive: 8.91 µM [activator, single point] |
| COc1ccc(-c2nc3cnc(Oc4cccc(Cl)c4)nc3n(C[C@H]3CCCO3)c2=O)cc1 | inconclusive: -27% |  |
| COc1ccccc1C(=O)Oc1ccc2c(c1)O/C(=C\c1ccncc1)C2=O | inactive: -11.3% |  |
| C=CCN1C(=O)CN=C1Nc1cc(C)ccc1C | inactive: 10.4% |  |
| Cc1ncc(C[n+]2csc(C)c2C)c(N)n1 | inconclusive: 12.1% [at 46 µM] |  |
| Oc1c(I)cc(Cl)c2cccnc12 |  | inconclusive: 12.6 µM [fluorescent, partial curve] |
| O=C(CNC(=S)N(CCCN1CCOCC1)Cc1cccs1)NC1CCCCCCC1 | inactive: -9.9% |  |
| CCOC(=O)c1c(NC(=O)COC(=O)CNC(=O)c2ccco2)sc(C(C)=O)c1C | inconclusive: -2.13% |  |
| COc1ccc(S(=O)(=O)c2cn(C)c3cc(N4CCCC4)c(F)cc3c2=O)cc1 | inactive: 2.42% [at 46 µM] |  |
